US8242251B2, “Unsymmetrical cyanine dimer compounds and their application” (Life Technologies Corporation, priority 2003, dated 2012)
Some ranges recur; such a range may be that of the whole group of compounds.

System: RNA versus DNA
Experiment: Screening of fluorescence properties and relative fluorescence enhancement with RNA versus DNA (Table 3)
Type: binding
Settings: Complex with nucleic acid

Structure (SMILES)	Excitation/Emission (nm): emission	Excitation/Emission (nm): excitation
C[n+]1c(/C=C2\C=C(SCCCCCCCCCSC3=C/C(=C\c4sc5ccccc5[n+]4C)c4ccccc4N3c3ccccc3)N(c3ccccc3)c3ccccc32)sc2ccccc21 [Compound 1]	M (M = excitation of about 480-510 nm and emission of about 510-540 nm.)	M (M = excitation of about 480-510 nm and emission of about 510-540 nm.)
C[n+]1c(/C=C2\C=C(N3CCN(C4=C/C(=C\c5sc6ccccc6[n+]5C)c5ccccc5N4c4ccccc4)CC3)N(c3ccccc3)c3ccccc32)sc2ccccc21.[Cl-].[Cl-] [Compound 6]	M (M = excitation of about 480-510 nm and emission of about 510-540 nm.)	M (M = excitation of about 480-510 nm and emission of about 510-540 nm.)
C[n+]1c(/C=C2\C=C(Sc3nnc(SC4=C/C(=C\c5sc6ccccc6[n+]5C)c5ccccc5N4c4ccccc4)s3)N(c3ccccc3)c3ccccc32)sc2ccccc21.[Cl-].[Cl-] [Compound 7]	M (M = excitation of about 480-510 nm and emission of about 510-540 nm.)	M (M = excitation of about 480-510 nm and emission of about 510-540 nm.)
CN1/C(=C\c2c/c(=N/C3CCC(/N=c4/cc(/C=C5/Sc6ccccc6N5C)c5ccccc5n4-c4ccccc4)CC3)n(-c3ccccc3)c3ccccc23)Sc2ccccc21 (stereo not shown) [Compound 8]	M (M = excitation of about 480-510 nm and emission of about 510-540 nm.)	M (M = excitation of about 480-510 nm and emission of about 510-540 nm.)
CN1/C(=C\c2c/c(=N/N3CCN(/N=c4/cc(/C=C5/Sc6ccccc6N5C)c5ccccc5n4-c4ccccc4)CC3)n(-c3ccccc3)c3ccccc23)Sc2ccccc21 [Compound 9]	M (M = excitation of about 480-510 nm and emission of about 510-540 nm.)	M (M = excitation of about 480-510 nm and emission of about 510-540 nm.)
C[n+]1c(/C=C2\C=C(N(CCC[N+](C)(C)C)CCC[N+](C)(C)C)N(CCCCCCCCCCN3C(N(CCC[N+](C)(C)C)CCC[N+](C)(C)C)=C/C(=C\c4sc5ccccc5[n+]4C)c4ccccc43)c3ccccc32)sc2ccccc21.Cl.Cl [Compound 13]	M (M = excitation of about 480-510 nm and emission of about 510-540 nm.)	M (M = excitation of about 480-510 nm and emission of about 510-540 nm.)
C[n+]1c(/C=C2\C=C(N3CCNCCN(C4=C/C(=C\c5sc6ccccc6[n+]5C)c5ccccc5N4c4ccccc4)CCNCC3)N(c3ccccc3)c3ccccc32)sc2ccccc21.[Cl-].[Cl-] [Compound 15]	M (M = excitation of about 480-510 nm and emission of about 510-540 nm.)	M (M = excitation of about 480-510 nm and emission of about 510-540 nm.)
C[n+]1c(/C=C/C=C2/C=CN(c3ccccc3)C(N3CCN(C4=C/C(=C\C=C\c5sc6ccccc6[n+]5C)C=CN4c4ccccc4)CC3)=C2)sc2ccccc21 [Compound 18]	620 nm	570 nm
COc1ccc2c(c1)N(c1ccccc1)C(N1CCN(C3=C/C(=C\c4sc5ccccc5[n+]4C)c4ccc(OC)cc4N3c3ccccc3)CC1)=C/C2=C\c1sc2ccccc2[n+]1C.[I-].[I-] [Compound 19]	M (M = excitation of about 480-510 nm and emission of about 510-540 nm.)	M (M = excitation of about 480-510 nm and emission of about 510-540 nm.)
C[n+]1c(/C=C2\C=C(N3CCN(C4=C/C(=C\c5oc6ccccc6[n+]5C)c5ccccc5N4c4ccccc4)CC3)N(c3ccccc3)c3ccccc32)oc2ccccc21.[Cl-].[Cl-] [Compound 20]	M (M = excitation of about 480-510 nm and emission of about 510-540 nm.)	M (M = excitation of about 480-510 nm and emission of about 510-540 nm.)
CN1/C(=C\c2ccn(-c3ccccc3)/c(=N\N3CCN(/N=c4/cc(/C=C5/Sc6ccccc6N5C)c5ccccc5n4-c4ccccc4)CC3)c2)Sc2ccccc21 [Compound 25]	M (M = excitation of about 480-510 nm and emission of about 510-540 nm.)	M (M = excitation of about 480-510 nm and emission of about 510-540 nm.)
